In the supplement of paper PMC12067093, “Discovery and optimisation of a covalent ligand for TRIM25 and its application to targeted protein ubiquitination” (Chemical Science, 2025):
Some of the results follow.

Chains of the proteins cited; added tags and fusions are not shown. Lines headed by an entry give the natural chain unless they say otherwise; changes in a name come on top.
UniProt Q02880: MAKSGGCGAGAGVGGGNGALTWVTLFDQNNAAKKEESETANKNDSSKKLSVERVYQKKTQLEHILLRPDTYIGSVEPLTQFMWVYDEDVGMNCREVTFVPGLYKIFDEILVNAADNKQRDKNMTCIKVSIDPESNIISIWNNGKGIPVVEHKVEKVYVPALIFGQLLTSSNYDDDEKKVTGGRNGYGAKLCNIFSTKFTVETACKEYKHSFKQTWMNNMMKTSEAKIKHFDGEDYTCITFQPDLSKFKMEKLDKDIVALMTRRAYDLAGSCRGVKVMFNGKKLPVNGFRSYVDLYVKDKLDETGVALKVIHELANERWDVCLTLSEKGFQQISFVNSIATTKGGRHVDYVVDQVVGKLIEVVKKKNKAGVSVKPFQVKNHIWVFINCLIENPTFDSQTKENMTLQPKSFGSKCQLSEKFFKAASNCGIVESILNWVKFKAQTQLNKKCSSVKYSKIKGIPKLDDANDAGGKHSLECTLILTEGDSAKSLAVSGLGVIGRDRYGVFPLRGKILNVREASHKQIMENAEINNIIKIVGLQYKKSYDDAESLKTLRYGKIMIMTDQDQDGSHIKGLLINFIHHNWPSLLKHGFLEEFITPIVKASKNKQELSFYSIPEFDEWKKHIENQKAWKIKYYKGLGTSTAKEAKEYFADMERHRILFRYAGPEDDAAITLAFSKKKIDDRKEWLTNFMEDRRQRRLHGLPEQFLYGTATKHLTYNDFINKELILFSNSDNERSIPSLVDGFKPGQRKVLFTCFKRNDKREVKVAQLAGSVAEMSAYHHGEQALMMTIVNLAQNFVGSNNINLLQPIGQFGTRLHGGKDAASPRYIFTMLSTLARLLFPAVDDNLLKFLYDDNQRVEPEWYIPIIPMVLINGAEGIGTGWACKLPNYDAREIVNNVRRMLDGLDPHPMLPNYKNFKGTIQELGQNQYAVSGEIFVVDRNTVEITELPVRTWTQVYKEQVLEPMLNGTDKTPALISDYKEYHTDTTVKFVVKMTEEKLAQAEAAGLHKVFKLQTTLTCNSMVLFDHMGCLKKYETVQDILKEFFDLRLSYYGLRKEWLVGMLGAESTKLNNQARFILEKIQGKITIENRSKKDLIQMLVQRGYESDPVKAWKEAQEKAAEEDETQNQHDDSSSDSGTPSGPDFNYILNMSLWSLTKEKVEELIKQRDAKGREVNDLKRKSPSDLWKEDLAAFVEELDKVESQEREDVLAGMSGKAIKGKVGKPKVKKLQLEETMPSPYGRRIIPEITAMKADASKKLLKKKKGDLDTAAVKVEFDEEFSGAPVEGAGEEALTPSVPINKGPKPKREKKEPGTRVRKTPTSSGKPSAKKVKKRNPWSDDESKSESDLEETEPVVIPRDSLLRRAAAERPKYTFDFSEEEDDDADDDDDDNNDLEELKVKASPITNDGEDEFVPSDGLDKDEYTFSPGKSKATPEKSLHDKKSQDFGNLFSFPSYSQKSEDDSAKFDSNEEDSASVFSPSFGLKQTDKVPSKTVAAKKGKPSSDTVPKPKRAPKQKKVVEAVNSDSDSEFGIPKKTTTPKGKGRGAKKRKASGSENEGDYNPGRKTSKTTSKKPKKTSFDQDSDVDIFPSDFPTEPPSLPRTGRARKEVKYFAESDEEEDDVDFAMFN
UniProt Q96HA7: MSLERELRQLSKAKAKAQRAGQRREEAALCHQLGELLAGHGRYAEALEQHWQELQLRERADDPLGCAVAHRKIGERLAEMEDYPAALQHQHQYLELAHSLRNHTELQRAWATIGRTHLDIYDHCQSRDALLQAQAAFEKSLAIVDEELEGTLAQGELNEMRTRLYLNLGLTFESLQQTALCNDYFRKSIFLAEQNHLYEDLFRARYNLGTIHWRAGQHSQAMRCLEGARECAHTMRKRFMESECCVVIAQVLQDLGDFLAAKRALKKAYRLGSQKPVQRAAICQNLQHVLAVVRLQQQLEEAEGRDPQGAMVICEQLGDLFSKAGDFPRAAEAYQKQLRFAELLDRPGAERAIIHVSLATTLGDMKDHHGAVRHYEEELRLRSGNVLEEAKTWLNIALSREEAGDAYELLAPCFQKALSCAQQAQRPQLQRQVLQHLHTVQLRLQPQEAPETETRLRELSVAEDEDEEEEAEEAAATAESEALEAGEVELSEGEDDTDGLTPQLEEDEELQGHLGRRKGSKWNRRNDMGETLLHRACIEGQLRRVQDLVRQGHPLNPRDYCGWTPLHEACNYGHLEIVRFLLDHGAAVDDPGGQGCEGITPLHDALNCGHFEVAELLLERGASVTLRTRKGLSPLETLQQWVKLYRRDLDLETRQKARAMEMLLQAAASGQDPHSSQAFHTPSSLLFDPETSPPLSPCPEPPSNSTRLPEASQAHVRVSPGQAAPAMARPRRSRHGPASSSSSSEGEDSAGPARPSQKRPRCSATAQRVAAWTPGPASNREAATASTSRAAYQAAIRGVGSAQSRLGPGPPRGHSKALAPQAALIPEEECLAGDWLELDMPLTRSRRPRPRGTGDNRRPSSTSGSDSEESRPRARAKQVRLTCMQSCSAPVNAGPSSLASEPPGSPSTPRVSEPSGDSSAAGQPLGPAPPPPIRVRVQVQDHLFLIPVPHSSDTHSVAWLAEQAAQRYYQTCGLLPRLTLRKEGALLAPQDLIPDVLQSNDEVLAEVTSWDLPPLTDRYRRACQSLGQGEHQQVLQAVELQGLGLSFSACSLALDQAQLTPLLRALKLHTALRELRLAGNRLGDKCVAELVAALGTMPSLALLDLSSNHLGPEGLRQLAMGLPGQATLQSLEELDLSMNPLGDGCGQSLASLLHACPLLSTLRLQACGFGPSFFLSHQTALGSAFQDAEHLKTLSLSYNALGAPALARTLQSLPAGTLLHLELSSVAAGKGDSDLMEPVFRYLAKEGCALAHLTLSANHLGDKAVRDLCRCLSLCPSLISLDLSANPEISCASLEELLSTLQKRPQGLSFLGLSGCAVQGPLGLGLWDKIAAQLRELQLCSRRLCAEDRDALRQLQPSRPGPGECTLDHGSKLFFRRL
UniProt Q12888: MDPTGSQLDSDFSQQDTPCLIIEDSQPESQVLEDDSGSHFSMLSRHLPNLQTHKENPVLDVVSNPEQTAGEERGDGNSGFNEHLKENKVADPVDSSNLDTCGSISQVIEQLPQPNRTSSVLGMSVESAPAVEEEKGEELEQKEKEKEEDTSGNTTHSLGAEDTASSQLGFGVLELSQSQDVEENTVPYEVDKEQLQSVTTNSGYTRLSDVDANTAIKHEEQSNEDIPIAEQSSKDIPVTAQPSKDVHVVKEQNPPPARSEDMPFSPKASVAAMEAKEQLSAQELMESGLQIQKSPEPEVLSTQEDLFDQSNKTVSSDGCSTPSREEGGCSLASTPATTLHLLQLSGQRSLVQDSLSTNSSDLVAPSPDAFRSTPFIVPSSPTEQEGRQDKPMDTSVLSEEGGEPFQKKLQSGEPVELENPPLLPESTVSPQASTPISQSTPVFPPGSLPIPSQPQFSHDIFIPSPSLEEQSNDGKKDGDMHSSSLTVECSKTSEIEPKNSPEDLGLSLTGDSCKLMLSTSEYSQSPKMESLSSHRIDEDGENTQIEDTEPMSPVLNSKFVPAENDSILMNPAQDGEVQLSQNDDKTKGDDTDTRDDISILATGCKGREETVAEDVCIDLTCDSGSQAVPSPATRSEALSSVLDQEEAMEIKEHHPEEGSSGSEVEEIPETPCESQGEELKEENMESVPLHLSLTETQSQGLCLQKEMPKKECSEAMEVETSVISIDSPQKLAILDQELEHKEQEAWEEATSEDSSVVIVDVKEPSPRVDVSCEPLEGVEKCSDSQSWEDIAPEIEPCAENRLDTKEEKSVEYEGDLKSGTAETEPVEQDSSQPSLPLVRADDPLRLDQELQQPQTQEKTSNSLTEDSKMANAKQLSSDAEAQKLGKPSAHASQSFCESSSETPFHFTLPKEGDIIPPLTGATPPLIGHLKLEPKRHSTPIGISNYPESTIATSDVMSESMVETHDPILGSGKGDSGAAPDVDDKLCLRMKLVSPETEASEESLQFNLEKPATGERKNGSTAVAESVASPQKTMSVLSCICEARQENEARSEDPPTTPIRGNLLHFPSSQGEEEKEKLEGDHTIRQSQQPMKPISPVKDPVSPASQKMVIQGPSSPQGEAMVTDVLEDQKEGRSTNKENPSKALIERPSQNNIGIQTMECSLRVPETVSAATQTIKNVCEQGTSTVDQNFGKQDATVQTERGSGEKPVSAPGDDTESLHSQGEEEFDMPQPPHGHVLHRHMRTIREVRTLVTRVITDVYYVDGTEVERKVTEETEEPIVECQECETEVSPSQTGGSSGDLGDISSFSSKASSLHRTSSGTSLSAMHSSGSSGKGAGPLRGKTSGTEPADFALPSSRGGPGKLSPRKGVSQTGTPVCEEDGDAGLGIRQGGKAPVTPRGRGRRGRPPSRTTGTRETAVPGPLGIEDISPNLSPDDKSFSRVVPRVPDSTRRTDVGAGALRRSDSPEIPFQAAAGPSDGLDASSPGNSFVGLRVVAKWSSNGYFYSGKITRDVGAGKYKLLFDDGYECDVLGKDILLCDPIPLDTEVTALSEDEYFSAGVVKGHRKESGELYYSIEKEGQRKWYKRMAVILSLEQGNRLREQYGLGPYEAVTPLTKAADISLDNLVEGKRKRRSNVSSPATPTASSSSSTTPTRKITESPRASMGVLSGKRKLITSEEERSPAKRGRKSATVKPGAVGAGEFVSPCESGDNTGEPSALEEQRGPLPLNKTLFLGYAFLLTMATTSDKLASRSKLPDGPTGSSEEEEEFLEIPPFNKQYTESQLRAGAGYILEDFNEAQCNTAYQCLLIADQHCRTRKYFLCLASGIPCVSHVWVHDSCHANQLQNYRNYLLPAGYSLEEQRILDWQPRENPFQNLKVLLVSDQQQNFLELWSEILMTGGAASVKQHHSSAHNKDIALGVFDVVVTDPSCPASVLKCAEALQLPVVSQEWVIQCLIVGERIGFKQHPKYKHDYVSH
UniProt Q99805: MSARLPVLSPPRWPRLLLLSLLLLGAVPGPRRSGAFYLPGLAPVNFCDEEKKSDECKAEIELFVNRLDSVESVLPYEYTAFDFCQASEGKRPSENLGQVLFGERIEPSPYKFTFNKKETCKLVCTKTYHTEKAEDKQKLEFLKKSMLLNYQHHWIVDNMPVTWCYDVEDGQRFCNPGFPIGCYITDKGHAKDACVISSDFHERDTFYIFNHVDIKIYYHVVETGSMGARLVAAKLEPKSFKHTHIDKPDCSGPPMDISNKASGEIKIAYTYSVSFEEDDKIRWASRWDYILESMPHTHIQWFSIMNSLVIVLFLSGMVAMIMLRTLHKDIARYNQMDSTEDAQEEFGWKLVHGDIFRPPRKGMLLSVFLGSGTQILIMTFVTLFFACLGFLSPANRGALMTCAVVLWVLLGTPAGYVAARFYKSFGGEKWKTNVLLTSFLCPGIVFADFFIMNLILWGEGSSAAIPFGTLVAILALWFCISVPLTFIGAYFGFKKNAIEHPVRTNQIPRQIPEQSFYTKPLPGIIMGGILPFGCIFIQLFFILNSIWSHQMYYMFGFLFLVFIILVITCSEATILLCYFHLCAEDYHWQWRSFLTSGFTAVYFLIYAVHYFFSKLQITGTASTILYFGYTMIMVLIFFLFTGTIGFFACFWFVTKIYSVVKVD
UniProt P11387: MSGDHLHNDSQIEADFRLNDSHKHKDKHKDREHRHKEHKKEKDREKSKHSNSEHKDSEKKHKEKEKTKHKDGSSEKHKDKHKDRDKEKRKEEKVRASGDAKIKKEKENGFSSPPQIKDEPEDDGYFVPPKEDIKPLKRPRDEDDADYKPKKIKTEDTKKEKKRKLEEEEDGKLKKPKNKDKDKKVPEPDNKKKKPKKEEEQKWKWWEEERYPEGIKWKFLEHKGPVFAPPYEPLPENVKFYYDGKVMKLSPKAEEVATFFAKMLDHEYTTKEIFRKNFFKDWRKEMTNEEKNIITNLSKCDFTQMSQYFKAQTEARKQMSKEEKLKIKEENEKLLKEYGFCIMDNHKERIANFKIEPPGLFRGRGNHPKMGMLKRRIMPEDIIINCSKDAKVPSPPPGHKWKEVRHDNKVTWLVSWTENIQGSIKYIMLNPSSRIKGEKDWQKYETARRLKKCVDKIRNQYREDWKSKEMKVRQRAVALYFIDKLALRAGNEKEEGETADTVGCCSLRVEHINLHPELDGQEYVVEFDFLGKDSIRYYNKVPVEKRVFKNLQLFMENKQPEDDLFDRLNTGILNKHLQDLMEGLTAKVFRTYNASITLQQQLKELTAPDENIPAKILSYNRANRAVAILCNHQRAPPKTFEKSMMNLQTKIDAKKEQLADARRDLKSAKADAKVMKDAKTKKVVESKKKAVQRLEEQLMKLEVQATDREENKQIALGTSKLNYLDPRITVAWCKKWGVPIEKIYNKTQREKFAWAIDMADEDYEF

Compound: CC1Cc2ccccc2N1C(=O)C1CCCN(C1)C(=O)CCl (mixture of isomers) [TRIM25 ligand 11 (diastereomer mixture)]
Assay: probe-labelled cysteine peptide fold change vs DMSO (competition) (log2 fold change); higher = less target engagement (more negative = stronger competition)
Conditions: THP-1, incubation time: 4 h
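Note: competitive chemoproteomic profiling in live THP-1 cells with an iodoacetamide desthiobiotin (IA-DTB) probe, comparing probe-labelled peptide intensities in compound-treated cells against DMSO-treated controls.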

Target	probe-labelled cysteine peptide fold change (10 µM)	probe-labelled cysteine peptide fold change (50 µM)
TOP2B_Q02880_237_HFDGEDYTCITFQPDLSK (UniProt Q02880)	0.0241	-0.00406
TMEM33_P57088_224_IVVEHIIMKPACPLFVR (UniProt P57088)	-0.18	0.0095
TONSL_Q96HA7_66_ERADDPLGCAVAHR (UniProt Q96HA7)	0.0137	0.199
TP53BP1_Q12888_1950_CAEALQLPVVSQEWVIQCLIVGER (UniProt Q12888)	0.0956	-0.215
TP53BP1_Q12888_1038+1040_TMSVLSCICEAR (UniProt Q12888)	0.00587	-0.446
TMLHE_Q9NVH6_103_SLDTASVDLCIKPK (UniProt Q9NVH6)	-0.0564	-0.192
TNFAIP8_O95379_165_VNNVFDHFSDCEFLAALYNPFGNFKPHLQK (UniProt O95379)	0.088	-0.426
TMEM30A_Q9NV96_17_AMNYNAKDEVDGGPPCAPGGTAK (UniProt Q9NV96)	-0.188	-0.287
TOMM34_Q15785_236_ALCYLVLK (UniProt Q15785)	0.00178	0.159
TM9SF2_Q99805_56_KSDECK (UniProt Q99805)	-0.0321	-0.204
TM9SF2_Q99805_164_SMLLNYQHHWIVDNMPVTWCYDVEDGQR (UniProt Q99805)	-0.081	-0.254
TOP3B_O95985_819_HAASCHPMHR (UniProt O95985)	0.0936	-0.331
TOP3B_O95985_126_EGENICFEVLDAVLPVMNK (UniProt O95985)	0.0014	0.0284
TNPO1_Q92973_142_LCSLLDSEDYNTCEGAFGALQK (UniProt Q92973)	-0.143	0.104
TOP1_P11387_504_AGNEKEEGETADTVGCCSLR (UniProt P11387)	-0.449	-0.228
TNS3_Q68CZ2_1381_HYPVNSVIFCALDPQDR (UniProt Q68CZ2)	0.12	0.192
TONSL_Q96HA7_314_LQQQLEEAEGRDPQGAMVICEQLGDLFSK (UniProt Q96HA7)	0.0453	0.0947
TONSL_Q96HA7_1345_RLCAEDRDALR (UniProt Q96HA7)	-0.0462	-0.157
TOP1_P11387_504_EEGETADTVGCCSLR (UniProt P11387)	0.143	0.242

Target	probe-labelled cysteine peptide fold change (10 µM)	probe-labelled cysteine peptide fold change (50 µM)
TNKS1BP1_Q9C0C2_136_CAAPGGVR (UniProt Q9C0C2)	-0.0427	-0.221
TOP2A_P11388_455_NSTECTLILTEGDSAK (UniProt P11388)	-0.0545	-0.0537
TOP1_P11387_505_EEGETADTVGCCSLR (UniProt P11387)	-0.199	0.00926
TONSL_Q96HA7_30_EEAALCHQLGELLAGHGR (UniProt Q96HA7)	0.02	0.0679
TMCO6_Q96DC7_57_NDAPEEAGEGCVAAILGETEVQQFLR (UniProt Q96DC7)	0.0856	-0.0309
TM7SF3_Q9NS93_180_GVDPPPCDAGTDQDSR (UniProt Q9NS93)	0.0229	-0.095
TNIP2_Q8NFZ5_428_HVAECCQ (UniProt Q8NFZ5)	0.0234	0.0514
TOPBP1_Q92547_1200_QAVCDPGNIR (UniProt Q92547)	0.0229	-0.182
TONSL_Q96HA7_561_DYCGWTPLHEACNYGHLEIVR (UniProt Q96HA7)	0.18	0.0921
TOR2A_Q5JU69_35+43_CTLGAFCECDFRPDLPGLECDLAQHLAGQHLAK (UniProt Q5JU69)	0.0441	0.314
TLN1_Q9Y490_750_AVEGCVSASQAATEDGQLLR (UniProt Q9Y490)	0.189	0.331
TMEM209_Q96SK2_295_KFQYQLACR (UniProt Q96SK2)	-0.194	-0.278
TNPO3_Q9Y5L0_204_CLGSWFNLGVLDSNFMANNK (UniProt Q9Y5L0)	-0.288	-0.153
TOP2B_Q02880_271_AYDLAGSCR (UniProt Q02880)	0.2	0.173
TOMM40_O96008_354_FQCGFGLTIG (UniProt O96008)	-0.0985	0.0231
TNFAIP2_Q03169_356_LDGHCHSELAIDIIQITSQAQAK (UniProt Q03169)	0.0507	-0.118
TOP1_P11387_630_AVAILCNHQR (UniProt P11387)	-0.00984	-0.0238
TMEM120B_A0PK00_43_QKLEELAALQTLCSSSISK (UniProt A0PK00)	-0.035	-0.0472
